# Test results from patent publication US20250195504A1, “NALTREXAMINE DERIVATIVES BEARING 5-MEMBER HETEROCYCLIC RING SYSTEMS AND OPIOID RECEPTOR MODULATORS” (VIRGINIA COMMONWEALTH UNIVERSITY, priority 2022, published 2025).
# Structures can show the parent of a compound that is named as a salt. At least one compound was matched to its structure with a doubt left. Some results were stated once for a whole list of compounds, not compound by compound.
# Columns and labels:
# male Swiss Webster mice [1] = test: warm-water tail immersion (tail flick / tail-withdrawal) assay, antinociception; assay type: in vivo, mouse; conditions: Example 1 compounds, 10 mg/kg s.c., 20 min after injection
# Protocol: In this assay, the duration for which mice kept their tails in the warm water was recorded.
# All thirty-six compounds' antinociception were examined in tail immersion assay first to preclude any opioid receptor agonists.
# Swiss Webster mice (six male mice for each group, 25-35 g, 6-8 weeks old) were used in this assay. Antinociception for all compounds was examined in male Swiss Webster mice. […] To prevent tissue damage, a 10 s maximum cutoff time was imposed. Antinociceptive response was calculated as the percentage of maximum possible effect (% MPE), where % MPE=[(test−control latency)/(10−control latency)]×100.
# (§1) Warm-water tail immersion assay is a well-established assay for evaluating opioid analgesics, especially MOR agonists. […] In this context, all 24 compounds were first evaluated for their acute antinociception tail-withdrawal assay (FIG. 5A).
# (§2) The tail-withdrawal test was performed using a water bath with the temperature maintained at 56±0.1° C. Baseline latency was measured before any injections. Each mouse was gently wrapped in a cloth with only the tail exposed. The distal one-third of the tail was immersed perpendicularly in water, and the mouse rapidly flicked the tail from the bath was seen as the first sign of discomfort. The duration of time the tail remained in the water bath was counted as the baseline latency. Untreated mice with baseline latency reaction times ranging from 2 to 4 seconds were used. Test latency was obtained 20 min later after each injection. A 10-second maximum cutoff latency was used to prevent any tissue damage. Antinociception was quantified as the percentage of maximal possible effect (% MPE), which was calculated as % MPE=[(test latency−control latency)/(10−control latency)]×100. The % MPE value was calculated for each mouse using 6 mice per group. Testing compounds were given 10 mg/kg (s.c.) to each mouse.
# male Swiss Webster mice [2] = test: warm-water tail immersion assay, antagonism of morphine's antinociception; assay type: in vivo, mouse; conditions: Example 1 compounds; 10 mg/kg s.c. in the presence of morphine (10 mg/kg)
# Protocol: Following this single dose assessment, in vivo dose-response studies with eight identified antagonists were conducted.
# Antinociceptive effect of synthesized compounds was determined using the warm-water tail immersion assay. Swiss Webster mice (six male mice for each group, 25-35 g, 6-8 weeks old) were used in this assay. Antinociception for all compounds was examined in male Swiss Webster mice. […] To prevent tissue damage, a 10 s maximum cutoff time was imposed. Antinociceptive response was calculated as the percentage of maximum possible effect (% MPE), where % MPE=[(test−control latency)/(10−control latency)]×100.
# as §1, §2
# mice = test: carmine red dye study (GI tract motility, morphine-induced constipation); conditions: 10 mg/kg oral gavage, morphine 5 mg/kg
Compound,"antinociceptive effect (% MPE, in words) (male Swiss Webster mice [1])",antagonism of morphine's antinociceptive effect (in words) (male Swiss Webster mice [2]),further results
"17-Cyclopropylmethyl-3,14β-dihydroxy-4,5α-epoxy-6β-(2′-thienylacetamido)morphinan hydrochloride [Example 1 compound 28]",did not produce any significant antinociception,nor were they able to antagonize morphine's antinociceptive effect,
"O=C(CCc1ccsc1)NC1CCC2(O)C3Cc4ccc(O)c5c4C2(CCN3CC2CC2)C1O5 (single isomer, unassigned) [Example 1 compound 35, 17-Cyclopropylmethyl-3,14β-dihydroxy-4,5α-epoxy-6α-[3′-(thiophen-3″-yl)propanamido]morphinan hydrochloride]",,nor were they able to antagonize morphine's antinociceptive effect,"antinociceptive effect (% MPE, in words) (male Swiss Webster mice [1]; listed as 35, hydrochloride, 10 mg/kg): did not produce any significant antinociception"
"O=C(CCc1ccsc1)NC1CCC2(O)C3Cc4ccc(O)c5c4C2(CCN3CC2CC2)C1O5 (single isomer, unassigned) [Example 1 compound 36, 17-Cyclopropylmethyl-3,14β-dihydroxy-4,5α-epoxy-6β-[3′-(thiophen-3″ yl)propanamido]morphinan hydrochloride]",,,"antinociceptive effect (% MPE, in words) (male Swiss Webster mice [1]; listed as 36, hydrochloride, 10 mg/kg): exhibited antinociception"
"O=C(CCc1cccs1)N[C@H]1CC[C@@]2(O)[C@H]3Cc4ccc(O)c5c4[C@@]2(CCN3CC2CC2)[C@H]1O5 [Example 1 compound 29, 17-Cyclopropylmethyl-3,14β-dihydroxy-4,5α-epoxy-6α-[3′-(thiophen-2″yl)propanamido]morphinan hydrochloride]",did not produce any significant antinociception,nor were they able to antagonize morphine's antinociceptive effect,
"O=C(Cc1ccsc1)N[C@H]1CC[C@@]2(O)[C@H]3Cc4ccc(O)c5c4[C@@]2(CCN3CC2CC2)[C@H]1O5 [Example 1 compound 33, 17-Cyclopropylmethyl-3,14β-dihydroxy-4,5α-epoxy-6α-(3′-thienylacetamido)morphinan hydrochloride]",did not produce any significant antinociception,nor were they able to antagonize morphine's antinociceptive effect,
"O=C(Cc1ccsc1)N[C@@H]1CC[C@@]2(O)[C@H]3Cc4ccc(O)c5c4[C@@]2(CCN3CC2CC2)[C@H]1O5 [Example 1 compound 34, 17-Cyclopropylmethyl-3,14β-dihydroxy-4,5α-epoxy-6β-(3′-thienylacetamido)morphinan hydrochloride]",did not produce any significant antinociception,nor were they able to antagonize morphine's antinociceptive effect,
"O=C(NC1CCC2(O)C3Cc4ccc(O)c5c4C2(CCN3CC2CC2)C1O5)c1ccncc1 (stereo not drawn) [NAP, 17-cyclopropylmethyl-3,14-dihydroxy-4,5α-epoxy-6β-[(4′-pyridyl)carboxamido]morphinan]",,,blockage of GI motility inhibition by morphine (in words) (mice): no blockage was observed
